The results in this text go back to PMC3651169.

Chains of the proteins cited; added tags and fusions are not shown.
UniProt Q9QUR7: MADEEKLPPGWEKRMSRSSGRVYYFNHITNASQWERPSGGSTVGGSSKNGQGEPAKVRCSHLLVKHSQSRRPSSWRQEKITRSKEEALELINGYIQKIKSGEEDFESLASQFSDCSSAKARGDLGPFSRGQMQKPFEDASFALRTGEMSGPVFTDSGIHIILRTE
UniProt P97454: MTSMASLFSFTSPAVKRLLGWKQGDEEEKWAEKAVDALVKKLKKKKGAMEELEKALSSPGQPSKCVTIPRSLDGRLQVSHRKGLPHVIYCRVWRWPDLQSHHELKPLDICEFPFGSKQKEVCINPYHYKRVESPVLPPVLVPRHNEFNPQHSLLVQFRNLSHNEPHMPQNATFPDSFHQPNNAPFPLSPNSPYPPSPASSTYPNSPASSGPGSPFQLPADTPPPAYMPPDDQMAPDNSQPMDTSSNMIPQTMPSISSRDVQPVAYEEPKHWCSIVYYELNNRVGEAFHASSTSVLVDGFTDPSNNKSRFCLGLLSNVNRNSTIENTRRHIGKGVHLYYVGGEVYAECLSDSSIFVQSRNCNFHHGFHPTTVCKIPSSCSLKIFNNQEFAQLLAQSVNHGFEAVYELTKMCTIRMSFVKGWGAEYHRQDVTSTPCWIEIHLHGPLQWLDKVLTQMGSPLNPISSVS

Experiment [1] concerns the target peptidyl-prolyl isomerase PIN1 (mouse (endogenous in bone marrow derived and primary calvarial osteoblasts)) (UniProt Q9QUR7). The experiment in a line: co-IP; differentiated primary calvarial osteoblasts treated with BMP2 for 60 min; immunoprecipitation with anti-PIN1 and immunoblot. (Immunoblotting shows a protein as a band on a membrane.)
Experiment [2] shares this target. The experiment in a line: co-IP; differentiated primary calvarial osteoblasts, untreated (no BMP2); immunoprecipitation with anti-PIN1 and immunoblot.
Experiment [3] shares this target. Description: co-IP; bone marrow cells treated with BMP2 (200 ng/ml) for 10 days; lysis in NP-40 buffer (1% Triton-X 100, 0.5% NP-40, 150 mM NaCl, 10 mM Tris pH 7.4, 1 mM EDTA, 1 mM EGTA); immunoprecipitation with anti-PIN1, protein G-agarose, 4°C; immunoblot.

No constants are given. Whether binding was seen depends on the method and setting. In cells and extracts the contact can be indirect. Some entries that bind do so weakly or less than the wild type.

Consider SMAD5 (from UniProt P97454 1-465), for which the binding entry was “binds” in experiment [1], “binds weakly” in experiment [2] and “binds” in experiment [3].
